PubChem BioAssay AID1259254 | NCATS – 2017
Shown is one part, drawn at random, of about 59,000 reagents tested. In the full data, about 1,550 (2.6%) were called active. 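G2 share is only a proxy for re-replication; each gene was hit by three separate siRNAs, and active genes were retested.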 The raw values are shown without normalisation. The numbers tell different reagents against one gene apart. Not stated in the record: the amount of reagent.

Aim: 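Finding genes that stop cells copying their DNA twice in one cycle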 (primary screen)
Cell system: human HCT116 colorectal cancer cells
Reagents: single siRNA against human genes
Duration: 3 days
Read-out: 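Nuclei stained with Hoechst and imaged; cell-cycle phase assigned by DNA content; G2 share scaled per plate, non-targeting siRNA 0%, GMNN siRNA 100%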
Reading the numbers: G2 robust z-score and G2 cells, % of GMNN control: higher = more G2 cells, more excess DNA replication; raw share of cells in G2: higher = larger share of cells with G2 DNA content
Rule for the call: 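Active siRNAs have a G2 robust z of 5 or more median absolute deviations over the median, which in these data means about 38% or higher of GMNN control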

| gene | reagent no. | G2 robust z-score | G2 cells, % of GMNN control | raw share of cells in G2 (%) | Outcome |
| --- | --- | --- | --- | --- | --- |
| KIAA1614 | 1 | -0.405 | 0.119 | 4.39 | inactive |
| KIAA1614 | 2 | 0.292 | 5.02 | 6.86 | inactive |
| KIAA1614 | 3 | -0.596 | -1.22 | 2.64 | inactive |
| RPS24 | 1 | 2.99 | 24 | 15.2 | inactive |
| RPS24 | 2 | 3.34 | 26.5 | 14.7 | inactive |
| RPS24 | 3 | 2.56 | 21 | 10.9 | inactive |
| PEX39 | 1 | -0.233 | 1.33 | 3.92 | inactive |
| PEX39 | 2 | -0.514 | -0.649 | 2.9 | inactive |
| PEX39 | 3 | -0.572 | -1.05 | 3.22 | inactive |
| NELL2 | 1 | -0.4 | 0.156 | 3.25 | inactive |
| NELL2 | 2 | 1.55 | 13.8 | 10.7 | inactive |
| NELL2 | 3 | -1.14 | -5.04 | 3.47 | inactive |
| PCED1A | 1 | 0.311 | 5.15 | 6.83 | inactive |
| PCED1A | 2 | 0.227 | 4.56 | 6.65 | inactive |
| PCED1A | 3 | -1.2 | -5.5 | 1.24 | inactive |
| UBQLNL | 1 | -0.934 | -3.6 | 1.81 | inactive |
| UBQLNL | 2 | 4.02 | 31.2 | 14.3 | inactive |
| UBQLNL | 3 | 6.46 | 48.4 | 17.9 | active |
| ELOVL7 | 1 | 1.63 | 14.4 | 10.4 | inactive |
| ELOVL7 | 2 | 1.76 | 15.3 | 11 | inactive |
| ELOVL7 | 3 | 0.0529 | 3.34 | 3.29 | inactive |
| STAT5A | 1 | -0.481 | -0.42 | 4.4 | inactive |
| STAT5A | 2 | 0.222 | 4.53 | 7.21 | inactive |
| STAT5A | 3 | 1.12 | 10.9 | 7.56 | inactive |
| FAM209B | 1 | 0.467 | 6.25 | 5.91 | inactive |
| FAM209B | 2 | -0.0891 | 2.34 | 4.42 | inactive |
| FAM209B | 3 | 0.0354 | 3.22 | 6.01 | inactive |

Reformatted: entries from further up
STAT5A #3: G2 robust z-score = 1.12; G2 cells, % of GMNN control = 10.9; raw share of cells in G2 (%) = 7.56; Outcome = inactive
FAM209B #1: G2 robust z-score = 0.467; G2 cells, % of GMNN control = 6.25; raw share of cells in G2 (%) = 5.91; Outcome = inactive
FAM209B #2: G2 robust z-score = -0.0891; G2 cells, % of GMNN control = 2.34; raw share of cells in G2 (%) = 4.42; Outcome = inactive

Further records:
| gene | reagent no. | G2 robust z-score | G2 cells, % of GMNN control | raw share of cells in G2 (%) | Outcome |
| --- | --- | --- | --- | --- | --- |
| ABCF2 | 1 | -0.526 | -0.731 | 2.95 | inactive |
| ABCF2 | 2 | -0.367 | 0.384 | 5.35 | inactive |
| ABCF2 | 3 | -0.924 | -3.53 | 3.32 | inactive |
| HLA-DOB | 1 | 4.1 | 31.8 | 20.2 | inactive |
| HLA-DOB | 2 | -0.717 | -2.08 | 3.33 | inactive |
| HLA-DOB | 3 | -0.591 | -1.19 | 3.06 | inactive |
| MED22 | 1 | 1.91 | 16.4 | 12.4 | inactive |
| MED22 | 2 | 1.94 | 16.6 | 10.5 | inactive |
| MED22 | 3 | -0.678 | -1.8 | 2.71 | inactive |
| ZBTB2 | 1 | -0.538 | -0.815 | 2.5 | inactive |
| ZBTB2 | 2 | -1.21 | -5.57 | 3.39 | inactive |
| ZBTB2 | 3 | -1.12 | -4.88 | 2.1 | inactive |
| DTX1 | 1 | -0.743 | -2.26 | 2.56 | inactive |
| DTX1 | 2 | 0.192 | 4.32 | 6.87 | inactive |
| DTX1 | 3 | -0.358 | 0.451 | 3.27 | inactive |
| CHST12 | 1 | -0.787 | -2.57 | 3.26 | inactive |
| CHST12 | 2 | -1.33 | -6.37 | 2.16 | inactive |
| CHST12 | 3 | -0.743 | -2.26 | 5.44 | inactive |
| ANKRD27 | 1 | -0.474 | -0.366 | 3.99 | inactive |
| ANKRD27 | 2 | -0.309 | 0.794 | 3.69 | inactive |
| ANKRD27 | 3 | -0.386 | 0.254 | 2.48 | inactive |
| DNAJB9 | 1 | 0.482 | 6.36 | 5.98 | inactive |
| DNAJB9 | 2 | -0.16 | 1.85 | 5.71 | inactive |
| DNAJB9 | 3 | 0.392 | 5.72 | 5.18 | inactive |
| TRIM10 | 1 | -0.748 | -2.3 | 4.33 | inactive |
| TRIM10 | 2 | 3.38 | 26.8 | 15.6 | inactive |
| TRIM10 | 3 | -0.489 | -0.47 | 3.04 | inactive |
| ASH2L | 1 | -0.631 | -1.47 | 3.04 | inactive |
| ASH2L | 2 | -1.41 | -6.95 | 2.89 | inactive |
| ASH2L | 3 | 0.149 | 4.02 | 5.02 | inactive |
| SPINK8 | 1 | -0.288 | 0.942 | 4.13 | inactive |
| SPINK8 | 2 | -0.0429 | 2.67 | 4.21 | inactive |
| SPINK8 | 3 | 0.295 | 5.05 | 4.65 | inactive |
| PPP1R16B | 1 | -0.765 | -2.41 | 4.01 | inactive |
| PPP1R16B | 2 | -1.37 | -6.69 | 2.29 | inactive |
| PPP1R16B | 3 | -1.17 | -5.24 | 1.92 | inactive |
| SLC38A9 | 1 | 0.337 | 5.34 | 5.62 | inactive |
| SLC38A9 | 2 | -0.841 | -2.95 | 2 | inactive |
| SLC38A9 | 3 | -0.5 | -0.549 | 2.88 | inactive |
| SPRR1A | 1 | 8.07 | 59.8 | 25.8 | active |
| SPRR1A | 2 | -1.22 | -5.62 | 2.1 | inactive |
| SPRR1A | 3 | -0.606 | -1.29 | 4.1 | inactive |
